Measurements: patent US11608483B2, “Inverted culture plate system for cellular co-culture” (University of Maryland, Baltimore, priority 2016, dated 2023)
At least one structure is not confirmed: it was looked up by name or label, or the drawing left a doubt.

Target: T1, hCAR (Homo sapiens, UniProt Q14994)
T1 sequence (Q14994 1-348 isoform Q14994-2): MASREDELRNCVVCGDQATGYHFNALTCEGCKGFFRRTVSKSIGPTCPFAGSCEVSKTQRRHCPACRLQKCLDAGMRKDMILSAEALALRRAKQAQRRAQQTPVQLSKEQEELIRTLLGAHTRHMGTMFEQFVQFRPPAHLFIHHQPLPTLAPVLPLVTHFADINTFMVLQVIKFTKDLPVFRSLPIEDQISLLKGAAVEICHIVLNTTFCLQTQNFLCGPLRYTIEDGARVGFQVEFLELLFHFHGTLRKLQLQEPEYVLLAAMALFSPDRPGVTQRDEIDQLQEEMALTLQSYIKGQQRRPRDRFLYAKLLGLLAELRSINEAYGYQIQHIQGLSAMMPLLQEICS
Assay: Nuclear translocation of EYFP-hCAR in HPHs
Format: cell-based
Set-up: expressed in transfected cells
Conditions: HPHs donor 123; 1 mM PB, 10 μM others; 8 hours
Experimental: After treatment, cells were fixed with 4% paraformaldehyde, stained with 1 μg/ml 4′,6-diamidino-2-phenylindole (Sigma-Aldrich) for 30 minutes, and EYFP-hCAR localization in hepatocytes was visualized on a Nikon Eclipse TI fluorescent microscope (Nikon, Melville, N.Y.). Quantitative distribution of EYFP-hCAR was analyzed using General Analysis in the Nikon Elements AR High Content Analysis software package (version 4.50.00). Nuclear localization was defined and quantified as the percentage of total enhanced yellow fluorescent protein that overlaps with 4′,6-diamidino-2-phenylindole.

CCC1(c2ccccc2)C(=O)NC(=O)NC1=O [PB, Phenobarbital]
nuclear translocation of hCAR (EYFP-hCAR): induced significant hCAR nuclear accumulation
